Results are given in words; binding and its absence hold for the method and conditions named. Some entries that bind do so weakly or less than the wild type. Where a sequence is shown, tags or fusion partners need not be part of it.
Target: T1, BD-PUB26 (Arabidopsis thaliana) (UniProt Q9FXA4)
T1 sequence: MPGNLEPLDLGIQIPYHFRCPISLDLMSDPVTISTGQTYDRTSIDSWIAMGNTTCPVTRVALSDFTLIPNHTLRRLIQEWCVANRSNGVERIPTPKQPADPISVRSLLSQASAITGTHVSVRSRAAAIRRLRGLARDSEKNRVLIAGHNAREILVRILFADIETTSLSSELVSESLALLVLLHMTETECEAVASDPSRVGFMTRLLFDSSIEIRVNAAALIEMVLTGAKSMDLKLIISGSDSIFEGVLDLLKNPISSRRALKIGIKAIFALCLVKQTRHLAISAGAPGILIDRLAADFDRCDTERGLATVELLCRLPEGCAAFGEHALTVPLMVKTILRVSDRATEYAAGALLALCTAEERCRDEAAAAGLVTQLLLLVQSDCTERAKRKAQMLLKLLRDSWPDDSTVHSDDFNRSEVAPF
Assay: two-hybrid

KGAWTKEEDQRLVDYIRNHGEGCWRSLPKSAGLLRCGKSCRLRWINYL (domain or fragment, UniProt Q38851 14-61) [MYB6 (14-61)]
binding: binds

RGNFTDDEDQIIIKLHSLLGNKWSLIAGRLPGRTDNEIKNYWNTH (domain or fragment, UniProt Q38851 67-111) [MYB6 (67-111)]
binding: binds
